Reference: PubChem BioAssay AID1487 (National Center for Advancing Translational Sciences (NCATS), 2009)
The other results are listed elsewhere or left out. These are further read-outs of the screen, such as a control signal, another cell line or another target. No call is given for them. Compounds called inactive in the main read-out are mostly missing here. Potencies come from curve fits of mixed quality, noted in brackets.

Assay: qHTS Assay for Modulators of Lamin A Splicing
Conditions: HeLa LMNA splicing GFP/RFP minigene ratio, 48 h
Summary of the method: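 S3 HeLa stable clones carrying a lamin A-EGFP splicing minigene plus DsRed2 were seeded at 600 cells/well in Opti-MEM with 2% FBS, pin-dosed and incubated 48 h at 37°C. Acumen cytometry (488 nm) gave the GFP/RFP total-intensity ratio.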

[1] = measured here: GFP splicing reporter channel
[2] = measured here: RFP viability control channel

Compound | AC50 [1] | AC50 [2]
O=C(CSC1=Nc2ccccc2C2CC=NN12)Nc1ccc2c(c1)OCO2 (stereo unspecified) | 0.00891 µM [rising, full curve] | 0.0112 µM [rising, full curve]
CN(C)S(=O)(=O)c1cccc(C(=O)Nc2cc(Cl)ccc2O)c1 | 12.6 µM [rising, partial curve] | 22.4 µM [rising, partial curve]
Cc1cccc(OCc2n[nH]c(=S)n2C2CCCCC2)c1 |  | 11.2 µM [rising, partial curve]
COC(=O)c1cc(O)c(O)c(O)c1 | 35.5 µM [falling, single point] | 25.1 µM [falling, single point]
COc1ccc(-c2nnn(Cc3nc(N)nc(N4CCCCC4)n3)n2)cc1 |  | 14.1 µM [rising, single point]
CC(C)(C)SCCNC(=O)Nc1ccccc1 | 10 µM [rising, partial curve, poor fit] | 
Cc1ccc(CNS(=O)(=O)c2cc3[nH]c(=O)c(=O)[nH]c3cc2C)cc1 |  | 4.47 µM [falling, single point]
Cc1nc(CNS(=O)(=O)c2ccc3c(c2)OCCO3)cs1 |  | 12.6 µM [rising, partial curve]
CC(C)CN1C(=O)/C(=C(/C#N)C(=O)NC2CCCCC2)c2ccccc21 |  | 0.891 µM [rising, partial curve]
O=C(NCc1ccco1)/C(=C/c1cccc(C(F)(F)F)c1)c1nc2ccccc2[nH]1 | 0.0112 µM [falling, full curve, poor fit] | 
O=C1C2CCCCC2C(=O)N1c1ccc(NC2CCCCC2)c([N+](=O)[O-])c1 (stereo unspecified) |  | 0.2 µM [rising, full curve]
N/C(=N\N=C\c1ccc2c(c1)OCO2)c1nonc1N | 7.08 µM [falling, full curve, poor fit] | 7.08 µM [falling, partial curve, poor fit]
CC(=O)NC(NC(=S)N1CCCCCC1)C(Cl)(Cl)Cl (stereo unspecified) | 8.91 µM [rising, partial curve, poor fit] | 
COc1cccc(CC2(CO)CCN(Cc3ccc(NC(C)=O)cc3)CC2)c1 | 0.00316 µM [rising, full curve] | 
Cn1c(=O)cc(OCCCC(=O)NCCCN2CCN(Cc3ccccc3)CC2)c2ccccc21 | 0.0112 µM [rising, full curve, poor fit] | 
Cc1ccc(C(=O)Nc2ccc3nc(SCC(=O)N4CCCc5ccccc54)sc3c2)cc1 | 0.447 µM [falling, full curve] | 0.158 µM [falling, full curve, poor fit]

Random excerpt: 2 entries already listed, in no set order.
Compound | AC50 [1] | AC50 [2]
Cn1c(=O)cc(OCCCC(=O)NCCCN2CCN(Cc3ccccc3)CC2)c2ccccc21 | 0.0112 µM [rising, full curve, poor fit] | 
CN(C)S(=O)(=O)c1cccc(C(=O)Nc2cc(Cl)ccc2O)c1 | 12.6 µM [rising, partial curve] | 22.4 µM [rising, partial curve]
